Data: paper doi:10.1101/2025.05.13.653837
Results are given in words; binding and its absence hold for the method and conditions named. In cells and extracts the contact can be indirect. Some results given as binding are weak or reduced against the parent protein; the word gives no strength. Tags and fused reporters may be left off the sequences shown.

Amino acid sequences for entries named in this document (tags omitted).
UniProt Q96RR4: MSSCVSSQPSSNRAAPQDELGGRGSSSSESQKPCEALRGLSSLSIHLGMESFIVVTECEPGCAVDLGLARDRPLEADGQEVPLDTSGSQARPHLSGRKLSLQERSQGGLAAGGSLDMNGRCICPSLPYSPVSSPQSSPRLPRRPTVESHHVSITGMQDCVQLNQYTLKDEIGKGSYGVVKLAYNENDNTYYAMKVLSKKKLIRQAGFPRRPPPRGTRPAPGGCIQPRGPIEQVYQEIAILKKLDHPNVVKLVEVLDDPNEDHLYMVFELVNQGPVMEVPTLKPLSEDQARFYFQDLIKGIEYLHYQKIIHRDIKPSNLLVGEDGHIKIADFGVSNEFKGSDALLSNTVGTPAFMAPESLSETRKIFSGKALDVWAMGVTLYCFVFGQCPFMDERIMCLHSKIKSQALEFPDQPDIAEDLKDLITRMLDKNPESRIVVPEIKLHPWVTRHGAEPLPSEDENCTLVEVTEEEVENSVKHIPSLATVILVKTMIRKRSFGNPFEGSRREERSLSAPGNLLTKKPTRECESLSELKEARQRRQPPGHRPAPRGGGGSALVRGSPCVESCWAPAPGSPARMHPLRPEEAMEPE

Target: Flag-tagged CAMKK2-LF (long isoform, exon 16 included), transiently expressed in HEK293 (human) (UniProt Q96RR4)
Assay: co-IP

B1: MYC-tagged 14-3-3 eta (YWHAH) (protein, UniProt Q04917 1-246)
chain: MGDREQLLQRARLAEQAERYDDMASAMKAVTELNEPLSNEDRNLLSVAYKNVVGARRSSWRVISSIEQKTMADGNEKKLEKVKAYREKIEKELETVCNDVLSLLDKFLIKNCNDFQYESKVFYLKMKGDYYRYLAEVASGEKKNSVVEASEAAYKEAFEISKEQMQPTHPIRLGLALNFSVFYYEIQNAPEQACLLAKQAFDDAIAELDTLNEDSYKDSTLIMQLLRDNLTLWTSDQQDEEAGEGN
Q: With B1 as the binder, how does the binding read?
A: binds
